According to PubChem BioAssay AID504834 (National Center for Advancing Translational Sciences (NCATS), 2011):
The campaign covered roughly 320,000 compounds. About 22,000 (6.9%) were called active. The inconclusive results got no clear call from the source; some entries with a clear call stand among them for comparison. The call rests on the fitted dose curve; in most records, active means well fitted inhibition curve with a large enough effect; inconclusive means small, poorly fitted or top-dose-only effect, or another doubt; inactive means no such curve, though single readings can be large or run the other way. Where the call is inconclusive, the potency comes from a doubtful curve fit.

Test: Primary qHTS for delayed death inhibitors of the malarial parasite plastid, 96 hour incubation
Conditions: P. falciparum luciferase reporter growth; series mostly up to 28.7 µM
How it was run: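 Two-generation exposure (96 h) targets delayed-death phenotype. Reporter parasites carrying integrated firefly luciferase, in red cells at 2% hematocrit and 0.05% parasitemia final, kept at 37 C, 5% CO2; luminescence loss indicates inhibition.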
Potency means the concentration at half of the fitted maximal effect.

SMILES | Potency
COc1ccc(O)c(C(=O)c2cnc3c(c2)c(=O)[nH]c(=O)n3C)c1 | inconclusive: 18.5 µM [inhibitor, single point]
COCC(C)n1c(C)cc(C(=O)CSc2nnc(Nc3ccccc3F)s2)c1C (stereo not drawn) | active: 0.586 µM
Cc1ccc2c(c1)[C@@H]1CN(C)CC[C@@H]1N2S(=O)(=O)c1ccc(F)cc1 | inconclusive: 14.7 µM [inhibitor, partial curve, poor fit]
C[C@H](NC(=O)c1ccccc1Cl)C(=O)OCC(=O)N1CCN(c2ccccc2)CC1 | inconclusive: 0.586 µM [inhibitor, full curve, poor fit]
Cc1ccc(C(=O)Nc2ccc3ccccc3n2)cc1 | inactive
COCCCN1C(=O)C(O)=C(C(C)=O)C1c1ccccn1 (stereo not drawn) | inconclusive: 18.5 µM [inhibitor, single point]
COc1ccc2c(-c3ccccc3)cc(SC(C)C(N)=O)nc2c1 (stereo not drawn) | inconclusive: 2.62 µM [inhibitor, single point]
Cc1c(Br)c([N+](=O)[O-])nn1CC(=O)NCC1CCCO1 (stereo not drawn) | inactive
O=C(CCC(=O)c1cccs1)OCc1ccc([N+](=O)[O-])cc1 | inactive
Cc1cnn(-c2cc(N/N=C/c3ccccc3F)ncn2)c1 | active: 13.1 µM
Cc1ccc(NC(=S)/N=C(\N)Nc2nc(C)c3ccccc3n2)cc1C | active: 2.33 µM
O=C(CNC(=O)c1ccccc1F)NCCOc1cccc(Cl)c1Cl | inconclusive: 8.28 µM [inhibitor, partial curve]
CCSc1nnc(Cc2cc(=O)[nH]c(=O)[nH]2)n1-c1ccc(F)cc1 | inconclusive: 13.1 µM [inhibitor, partial curve, poor fit]
O=C(/C=C/c1ccc(F)cc1)N1CCN(S(=O)(=O)/C=C/c2ccccc2)CC1 | inactive
CN(C(=O)COC(=O)c1ccccc1OCc1ccc(Cl)cc1)c1c(N)n(Cc2ccccc2)c(=O)[nH]c1=O | inconclusive: 18.5 µM [inhibitor, single point]
CCc1nnc(NS(=O)(=O)c2ccc(NCc3ccccc3O)cc2)s1 | active: 3.29 µM
CCCOC(=O)Nc1ccc([As](=O)(O)O)cc1NC(=O)OCCC | inconclusive: 1.47 µM [inhibitor, full curve, poor fit]
O=C(CNC(=O)c1ccc(Cl)cc1)OCC(=O)N1CCCC1 | inactive
CCN(CC)S(=O)(=O)N1CCC(C(=O)NCCN2CCOCC2)CC1 | inconclusive: 2.62 µM [inhibitor, single point]
Cn1c(=O)c2c(ncn2CC(=O)OCC(=O)c2ccc(F)c(F)c2)n(C)c1=O | inconclusive: 4.15 µM [inhibitor, single point]
O=C(NC(=S)Nc1ccccc1C(=O)O)c1ccc(-c2ccc(Br)cc2)o1 | inconclusive: 18.5 µM [inhibitor, single point]
Cc1cc(C)cc(C(=O)N(C)C2CCCN(Cc3ccccc3F)C2)c1 (stereo not drawn) | inconclusive: 13.1 µM [inhibitor, single point]
COc1ccc2c(c1)C1=NN(/C(C)=C/C(C)=O)C(c3cccc(F)c3)C1CC2 (stereo not drawn) | inconclusive: 11.7 µM [inhibitor, single point]

SMILES | Potency
CCn1cc(C(=O)NCCC(=O)NCCCO)c(=O)c2cc3c(cc21)OCO3 | inactive
CN(CC(=O)Nc1ccc(F)cc1)C(=O)Cn1cnc2ccc(Cl)cc2c1=O | inconclusive: 10.4 µM [inhibitor, partial curve]
CCOC(=O)C1(C)NC(c2cccs2)C2C(=O)N(c3ccccc3)C(=O)C21 (stereo not drawn) | inconclusive: 10.4 µM [inhibitor, single point]
C=C1C(C(=O)Nc2ccc(F)cc2)C1C(=O)Nc1ccc(F)cc1 (stereo not drawn) | inconclusive: 20.8 µM [inhibitor, partial curve, poor fit]
Cn1nc2c(c1C(=O)N1CCCC(C(=O)c3cc(F)ccc3F)C1)CCCC2 (stereo not drawn) | inconclusive: 18.5 µM [inhibitor, single point]
CCc1nnc(NC(=O)c2ccc(-c3ccc(C(C)=O)cc3)o2)s1 | inconclusive: 18.5 µM [inhibitor, single point]
CCCN1CCC(CCOc2ccccc2)(C(=O)OCC)CC1 | inconclusive: 4.65 µM [inhibitor, partial curve, poor fit]
COc1cccc(NC(=O)CN(C)C(=O)Cn2c(=O)oc3ccccc32)c1 | inconclusive: 9.28 µM [inhibitor, single point]
O=C1CSC(c2cccnc2)N1Cc1ccc(Cl)cc1 (stereo not drawn) | inactive
COc1ccc(C(c2sc3nc(C)nn3c2O)N2CCCCC2)cc1 (stereo not drawn) | inactive
O=S(=O)(c1ccc2c(c1)OCCO2)N1CCN(c2nc(-c3cccnc3)nc3ccccc23)CC1 | inconclusive: 4.15 µM [inhibitor, single point]
CCc1cc(=O)oc2c(C)c(OCC(=O)N3CC[C@@]4(O)CCCC[C@H]4C3)ccc12 | inactive
CC(=O)Nc1ccc(S(=O)(=O)N2CCCC2C(=O)Nc2ccc(F)cc2)cc1 (stereo not drawn) | inconclusive: 10.4 µM [inhibitor, single point]
O=C(OCc1cc(=O)n2cc(Br)ccc2n1)c1ccc(Cl)c(S(=O)(=O)NCc2ccccc2)c1 | inconclusive: 18.5 µM [inhibitor, single point]
COC(=O)CCCN1C(=O)c2cccc3cccc(c23)C1=O | inconclusive: 14.7 µM [inhibitor, partial curve]
CN1CCCN(Cc2cccc3ccccc23)CC1 | inconclusive: 9.28 µM [inhibitor, partial curve, poor fit]
CN(Cc1ccccc1)C(=O)COC(=O)C1CCN(S(=O)(=O)c2ccc(Cl)c(C(F)(F)F)c2)CC1 | inconclusive: 10.4 µM [inhibitor, single point]
O=C(CN1C(=O)c2ccccc2S1(=O)=O)NCc1ccc2c(c1)OCO2 | active: 9.28 µM
O=C(Oc1ccc2c(c1)OCO2)c1ccc(F)cc1Cl | inconclusive: 10.4 µM [inhibitor, single point]
Cc1cc(C)c(O)c(C2(O)C(=O)c3ccccc3C2=O)c1 | inconclusive: 18.5 µM [inhibitor, single point]
O=C(CSc1nc2ccccc2o1)N1c2ccccc2Sc2ccc(C(F)(F)F)cc21 | inconclusive: 18.5 µM [inhibitor, single point]
Cc1cc(C(=O)CSc2nc(N)cc(N)n2)c(C)n1-c1cccc(C(F)(F)F)c1 | inconclusive: 14.7 µM [inhibitor, partial curve, poor fit]
O=C(c1ccc(S(=O)(=O)Cc2ccccc2F)c([N+](=O)[O-])c1)N1CCCC1 | inconclusive: 18.5 µM [inhibitor, single point]

Some of the entries above, set out differently.
SMILES	Potency
Cn1nc2c(c1C(=O)N1CCCC(C(=O)c3cc(F)ccc3F)C1)CCCC2 (stereo not drawn)	inconclusive: 18.5 µM [inhibitor, single point]
CCc1nnc(NC(=O)c2ccc(-c3ccc(C(C)=O)cc3)o2)s1	inconclusive: 18.5 µM [inhibitor, single point]

Next part:

SMILES | Potency
COc1ccc(C2CC3(CC(C)(C)NC(SC)=N3)Oc3cc(O)cc(C)c32)cc1 (stereo not drawn) | inactive
CC(=O)c1ccc(NC(=O)C2(c3ccccc3)CC2(Cl)Cl)cc1 (stereo not drawn) | inconclusive: 18.5 µM [inhibitor, single point]
Cc1ccc(N2CC(C(=O)Nc3ccc(S(=O)(=O)Nc4nccc(C)n4)cc3)CC2=O)cc1 (stereo not drawn) | inconclusive: 4.15 µM [inhibitor, single point]
COc1ccc(C(=S)N(C)C)cc1OC | active: 8.28 µM
Cn1cc(C(=O)N2CCCCC2)c(=O)c2cc(S(=O)(=O)N3CCCC3)ccc21 | inconclusive: 13.1 µM [inhibitor, single point]
CCN1CCN(S(=O)(=O)c2ccc(Cl)c(C(=O)Nc3cc(Cl)ccc3N3CCOCC3)c2)CC1 | active: 13.1 µM
O=C(/C=C/Sc1ccc(C(F)(F)F)cn1)c1ccccc1 | inactive
Cc1c(Cc2ccccc2)c(=O)oc2cc(O)cc(O)c12 | inactive
Clc1ccccc1/C=N/c1cc(-c2ccccc2)nn1-c1ccccc1 | inactive
COC(=O)C1=C(c2ccc(-c3ccccc3)c(F)c2)C[C@@H]2CC[C@H]1N2C(=O)NCc1ccco1 | inconclusive: 1.85 µM [inhibitor, single point]
CC1(C)CC(=O)CC2(C1)NCC(c1ccccc1Cl)c1c2[nH]c2ccccc12 (stereo not drawn) | active: 9.28 µM
C=CCc1cc(C)ccc1OCCOCCC(C(=O)OCC)C(=O)OCC | active: 11.7 µM
CCn1c(SCC(=O)c2cc(C)ccc2C)nc2cc(S(=O)(=O)N3CCOCC3)ccc21 | active: 7.38 µM
N#Cc1ncc(C(F)(F)F)cc1Sc1ccc(N)cc1 | inconclusive: 18.5 µM [inhibitor, single point]
O=C1NC(=O)c2cc(NC(=O)C3CCCO3)ccc21 (stereo not drawn) | inconclusive: 9.28 µM [inhibitor, partial curve]
O=C(NCc1cccnc1)C1COc2ccccc2O1 (stereo not drawn) | inconclusive: 0.233 µM [inhibitor, partial curve, poor fit]
Cc1[nH]c2ccccc2c1C(C#N)(C#N)C1C(=O)c2ccccc2C1=O | inconclusive: 3.7 µM [inhibitor, partial curve]
Cc1ccnc(NC(=O)CCC(=O)N(CC(=O)NCCc2ccccc2)c2ccc(F)cc2)c1 | inactive
Cc1ccccc1-c1nc(CS(=O)CC(=O)NCCN2CCN(Cc3ccccc3)CC2)c(C)o1 (stereo not drawn) | inactive
CNC(=S)N1CCN(c2nc(-c3cccc(OC)c3)cs2)CC1 | active: 11.7 µM
CCc1cc(=O)oc2c(C)c(OCC(=O)NCc3ccccn3)ccc12 | inconclusive: 18.5 µM [inhibitor, single point]
CCN(CC)C(=O)c1ccc(CS(=O)(=O)Cc2ccccc2)cc1 | inconclusive: 1.31 µM [inhibitor, full curve, poor fit]
